PubChem BioAssay AID1259331, Drosophila RNAi Screening Center – 2017
Assay: 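Knock-downs that alter ATP level after a high zinc chloride dose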 (primary screen). System: Drosophila S2R+ cells. Reagents: long dsRNA against Drosophila genes. Duration: 5 days (4 days knock-down, then 1 day zinc). Challenge: zinc chloride at 15 mM final level for 1 day. Measurement: 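Luminescent ATP assay standing in for viability; Z score is the mean over three replicate plates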. Reading the numbers: mean Z score: higher = more ATP than other wells, better survival under zinc; ATP luminescence: higher = more ATP, more viable cells. Rule for the call: 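a reagent is called a hit when its Z score is above 1.5 or below -1.5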. Meaning of the calls: active = hit, ATP up or down; inactive = not a hit.
This is an unselected part of about 3,100 reagents tested. 126 of all reagents (4.1%) count as active. 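Calls are per reagent; zinc was so toxic that few knock-downs lowered ATP further, so most hits raise ATP.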 Raw values vary from plate to plate and are shown uncorrected. A plus sign joins genes that one reagent is predicted to hit. Not given: the amount of reagent.

Depletion of Gr92a (GeneID 117473) [DRSC21631] resulted in: mean Z score 0.217; ATP luminescence, replicate 1 = 49143; ATP luminescence, replicate 2 = 50887; inactive.
Silencing of Gr92a (GeneID 117473) [DRSC39582] resulted in: mean Z score -0.519; ATP luminescence, replicate 1 = 50315; ATP luminescence, replicate 2 = 52744; inactive.
With knock-down of ZnT86D (GeneID 41342) [DRSC16091], the screen gave mean Z score -0.603; ATP luminescence, replicate 1 = 31982; ATP luminescence, replicate 2 = 47527; inactive.
Against Cnx14D + Cnx99A [DRSC16610] the deposit lists mean Z score 0.128; ATP luminescence, replicate 1 = 68797; ATP luminescence, replicate 2 = 67543; inactive.
With knock-down of CG32320 (GeneID 317977) [DRSC21514], the record shows mean Z score 0.0119; ATP luminescence, replicate 1 = 49812; ATP luminescence, replicate 2 = 50189; inactive.
Depletion of CG32320 (GeneID 317977) [DRSC28106] resulted in: mean Z score -0.784; ATP luminescence, replicate 1 = 55407; ATP luminescence, replicate 2 = 34729; inactive.
Knock-down of Toll-7 (GeneID 37272) [DRSC29640] came out at: mean Z score 0.478; ATP luminescence, replicate 1 = 68815; ATP luminescence, replicate 2 = 68709; inactive.
Toll-7 (GeneID 37272) [DRSC39883] showed mean Z score -0.762; ATP luminescence, replicate 1 = 45371; ATP luminescence, replicate 2 = 49297; inactive.
For Toll-6 (GeneID 39663) [DRSC11304] the deposit lists mean Z score -0.0123; ATP luminescence, replicate 1 = 73752; ATP luminescence, replicate 2 = 62024; inactive.
Toll-6 (GeneID 39663) [DRSC39854] scored mean Z score 0.161; ATP luminescence, replicate 1 = 59912; ATP luminescence, replicate 2 = 56984; inactive.

Entries above whose target name starts with T or t (4):
Toll-7 (GeneID 37272) [DRSC29640] | mean Z score = 0.478; ATP luminescence, replicate 1 = 68815; ATP luminescence, replicate 2 = 68709; Outcome = inactive
Toll-7 (GeneID 37272) [DRSC39883] | mean Z score = -0.762; ATP luminescence, replicate 1 = 45371; ATP luminescence, replicate 2 = 49297; Outcome = inactive
Toll-6 (GeneID 39663) [DRSC11304] | mean Z score = -0.0123; ATP luminescence, replicate 1 = 73752; ATP luminescence, replicate 2 = 62024; Outcome = inactive
Toll-6 (GeneID 39663) [DRSC39854] | mean Z score = 0.161; ATP luminescence, replicate 1 = 59912; ATP luminescence, replicate 2 = 56984; Outcome = inactive

Further reagents:
Silencing of sina + Rh4 [DRSC11396] resulted in: mean Z score -0.217; ATP luminescence, replicate 1 = 26359; ATP luminescence, replicate 2 = 29616; inactive.
Against CG6938 (GeneID 39362) [DRSC10752] the deposit lists mean Z score -0.206; ATP luminescence, replicate 1 = 70905; ATP luminescence, replicate 2 = 57477; inactive.
After knock-down of CG6938 (GeneID 39362) [DRSC28621], the screen gave mean Z score 0.292; ATP luminescence, replicate 1 = 59183; ATP luminescence, replicate 2 = 72730; inactive.
For SiaT (GeneID 37950) [DRSC04494], the values are mean Z score -0.457; ATP luminescence, replicate 1 = 42079; ATP luminescence, replicate 2 = 43999; inactive.
With knock-down of SiaT (GeneID 37950) [DRSC39665], the screen gave mean Z score -0.0653; ATP luminescence, replicate 1 = 61592; ATP luminescence, replicate 2 = 56191; inactive.
After knock-down of Or43a (GeneID 35644) [DRSC07485], the screen gave mean Z score -0.221; ATP luminescence, replicate 1 = 74198; ATP luminescence, replicate 2 = 68332; inactive.
